Here are results for 42 sequences from paper PMC7819943, “Rice protein-binding microarrays: a tool to detect cis-acting elements near promoter regions in rice”.

Chains of the proteins cited; added tags and fusions are not shown.
UniProt Q0JBA9, entry or part of it: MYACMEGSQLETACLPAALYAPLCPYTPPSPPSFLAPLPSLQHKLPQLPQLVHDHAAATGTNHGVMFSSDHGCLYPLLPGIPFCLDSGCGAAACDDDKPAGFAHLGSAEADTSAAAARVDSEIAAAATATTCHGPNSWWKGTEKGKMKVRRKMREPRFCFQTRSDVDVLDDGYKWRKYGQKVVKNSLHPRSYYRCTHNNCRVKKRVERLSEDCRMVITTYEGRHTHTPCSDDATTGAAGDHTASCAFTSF

The list shows a part of the results.

The target of this experiment is OsWRKY34 (Oryza sativa, UniProt Q0JBA9 1-250). The experiment can be described thus: protein-binding microarray (RPBM); PBS, 2% BSA, 51.3 ng/ul salmon testes DNA, 50 uM zinc acetate, 200 nM TF, 25 C, 1 h; high values mean tight binding. Particulars: protein: recombinant; tags: N-terminal polyhistidine and DsRed monomer fusion (pET32a); label: CyDye5-dUTP incorporated in the synthesized complementary strand; 3' TTTTT single-stranded linker to array surface; dsDNA, one strand shown. The procedure, abridged:
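A custom Agilent array was converted to double-stranded form by primer extension with Cy5-dUTP and blocked with 2% BSA. Protein at 200 nM in PBS with 2% BSA, salmon testes DNA and 50 µM zinc acetate was applied for 1 h at 25 °C, followed by washing. The proteins were polyhistidine–DsRed N-terminal fusions of transcription factors, expressed in E. coli BL21-CodonPlus and Ni–NTA-purified. The binding signal is per-feature fluorescence intensity (arbitrary units) from an Axon 4000B scanner.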
As for “TTTCCACAGCTGCCGGCTTACTTCTACTTCCTTGTCTTCTCGGAGTCACCTAGTGCAG”, the binding signal is 9570 fluorescence intensity (a.u.).

Turning to “ACGTACTGCCCAACCCTCGCCGCGGTATCGTAACTCGTAACGGAGTCACCTAGTGCAG”, the binding signal was 9600 fluorescence intensity (a.u.).

As to “GCGAGCACACACATTTTCCTACATGGACACCTTGATGTCCCGGAGTCACCTAGTGCAG”, the binding signal was 8080 fluorescence intensity (a.u.).

In the case of “GAGGTACTTGATTCATTACTATGTTTTCTTTTTGTTCTTTCGGAGTCACCTAGTGCAG”, the binding signal was 8800 fluorescence intensity (a.u.).

With “TATTTATTCTTTTCATATGATCTGATTCATTGTTAAATATCGGAGTCACCTAGTGCAG”, the binding signal is 8720 fluorescence intensity (a.u.).

In the case of “TACACACAGACACACTACTCTGCCTTTCTACACATACACCCGGAGTCACCTAGTGCAG”, the binding signal is 13600 fluorescence intensity (a.u.).

With “TCTCTTAATTGATGTACATATTTGTTATTAACATGTGGACCGGAGTCACCTAGTGCAG”, the binding signal was 9010 fluorescence intensity (a.u.).

For “CTTCTCCGGCCGCCTCGAGCGCCAGTTCTCCAGCCTCCGCCGGAGTCACCTAGTGCAG”, the binding signal is 9360 fluorescence intensity (a.u.).

On to “CGAGAAGGTTCCACACACACACACGGCCACCCGCATCCGCCGGAGTCACCTAGTGCAG”, for which the binding signal is 8530 fluorescence intensity (a.u.).

Regarding “ATGTCCATATTTATTTTATTGTGACGTGTCCAGATTTATTCGGAGTCACCTAGTGCAG”, the binding signal was 8770 fluorescence intensity (a.u.).

In the case of “TTTTGTTCTGCATTCTTTGTTAATGGTATCGTATTTTTTCCGGAGTCACCTAGTGCAG”, the binding signal is 12700 fluorescence intensity (a.u.).

With “ACTCTTGCCATTTCTACTATAAGTGTTTGTTTTGATGGTACGGAGTCACCTAGTGCAG”, the binding signal was 9710 fluorescence intensity (a.u.).

As for “CAAAGCAGCAGCCATCACCAGATAACCCCGCCCGCATGCCCGGAGTCACCTAGTGCAG”, the binding signal was 10100 fluorescence intensity (a.u.).

In the case of “TTGTTGCGGTTGATTTTTTGTATTTGGTGTTGCTTTGATGCGGAGTCACCTAGTGCAG”, the binding signal was 10900 fluorescence intensity (a.u.).

Take “AGTGACCCTTTTTATATCTTCTGTCGGCAGTTTTGTAGTTCGGAGTCACCTAGTGCAG”: the binding signal is 13800 fluorescence intensity (a.u.).

On to “AACCGAACCCACTCACCCAACCAACCGCAGAGCGAGAGCCCGGAGTCACCTAGTGCAG”, for which the binding signal was 8060 fluorescence intensity (a.u.).

On to “GTTTTATAATGTAAGTCATTTTAGCATTTCCCACATTCATCGGAGTCACCTAGTGCAG”, for which the binding signal is 8490 fluorescence intensity (a.u.).

With “TCATAACTTTATCTCTCTCATTTTTCGGCCACACGCTCAACGGAGTCACCTAGTGCAG”, the binding signal was 9690 fluorescence intensity (a.u.).

For “ATCATGTATATCATTGTATTGTTTTGTGTTTCTCCTCTAGCGGAGTCACCTAGTGCAG”, the binding signal is 11900 fluorescence intensity (a.u.).

In the case of “CGCCGCCATTGATCTGGTTTTGGTTTTGTGAGGAGGAGAACGGAGTCACCTAGTGCAG”, the binding signal was 13000 fluorescence intensity (a.u.).

Regarding “AATTTTACTTCCGTCGTCCACACTTCATCCATCGTTCGCCCGGAGTCACCTAGTGCAG”, the binding signal is 14700 fluorescence intensity (a.u.).

Take “GTCTTTGTTCAATTGTTCTTTGGCATGAATATTTTGTCAACGGAGTCACCTAGTGCAG”: the binding signal is 12300 fluorescence intensity (a.u.).

Take “AAAACTTAGCTAGTTCAGCATCTCTGGTTCCTCACTTTATCGGAGTCACCTAGTGCAG”: the binding signal was 9060 fluorescence intensity (a.u.).

As to “AGGTGGGTTGTTAATGTTGAACCGAGGTAGCGTGGTGGTGCGGAGTCACCTAGTGCAG”, the binding signal was 8870 fluorescence intensity (a.u.).

Regarding “CACGGTTAGAGAGCTATAGCATACATAACTCACCAATTATCGGAGTCACCTAGTGCAG”, the binding signal was 8180 fluorescence intensity (a.u.).

Turning to “TATCGCGGATCGCCGCTGTTGCCTTTTTGGCTCCTGGGTTCGGAGTCACCTAGTGCAG”, the binding signal is 8820 fluorescence intensity (a.u.).

As for “TGGTTGTTCCTATTTCCTATTGTTTTCTCATTCATATGAACGGAGTCACCTAGTGCAG”, the binding signal is 8780 fluorescence intensity (a.u.).

As to “GGAGTGTGTGATGCCATTGTAGGTATGTATGTGAAAACTGCGGAGTCACCTAGTGCAG”, the binding signal was 8300 fluorescence intensity (a.u.).

For the sequence “AAATGGGCATTATTGTGTGTAGTAGCATTTTGACATGTATCGGAGTCACCTAGTGCAG”, the binding signal is 9260 fluorescence intensity (a.u.).

Turning to “CTGCGTGTATAGAAGGGCGGTTGCTGGTGGGAGGAGGAGGCGGAGTCACCTAGTGCAG”, the binding signal was 8070 fluorescence intensity (a.u.).

As to “GAAATTCCTCGGTTTCCACGCGCGCTTTGGCATTTCTTTTCGGAGTCACCTAGTGCAG”, the binding signal is 9920 fluorescence intensity (a.u.).

Turning to “CGGGGTTTGCGGAGGAAGGGGAGGGGCACCGCCCGCGATGCGGAGTCACCTAGTGCAG”, the binding signal was 8700 fluorescence intensity (a.u.).

“TCAAGCCTGAGACGGCCTATTTGTCATTCTGTGGATATACCGGAGTCACCTAGTGCAG”: the binding signal was 8270 fluorescence intensity (a.u.).

As to “TCTCGTGCTCTTGACCGCGCCCACCTTCTCCGGCCCGCGCCGGAGTCACCTAGTGCAG”, the binding signal is 11400 fluorescence intensity (a.u.).

As for “TTTTATGCTTCAGTATCTAGTTTCCTGTTGTCATACTTAGCGGAGTCACCTAGTGCAG”, the binding signal is 12200 fluorescence intensity (a.u.).

For the sequence “TGAGTTGTTTAGTATGGAGGTGGGATAATTATTTTCTTTACGGAGTCACCTAGTGCAG”, the binding signal is 12000 fluorescence intensity (a.u.).

As to “ATGTTTTGTTTGATTGTGTGCATGCCCTCTTTCTTATGATCGGAGTCACCTAGTGCAG”, the binding signal was 13500 fluorescence intensity (a.u.).

As to “ATCGCTGGGACACGTCACCTTCCTTTCTATGCTCTCTTGACGGAGTCACCTAGTGCAG”, the binding signal is 11100 fluorescence intensity (a.u.).

Consider “TTCTTGTGTTTTTCCTATGACCTAATCTAACGATCATTCACGGAGTCACCTAGTGCAG”, for which the binding signal is 8230 fluorescence intensity (a.u.).

Regarding “ATGCACTTTCCCACCGCATGTCTCGTCTCTAGCTATCTTGCGGAGTCACCTAGTGCAG”, the binding signal is 8750 fluorescence intensity (a.u.).

“CACGACGCAGCATATGCTTGACCTTTATGTGTTTTACATACGGAGTCACCTAGTGCAG”: the binding signal is 9030 fluorescence intensity (a.u.).

As for “CATCACCTCGCCCAGCCCGAACCATTCCCACCCCTCCAAACGGAGTCACCTAGTGCAG”, the binding signal was 9430 fluorescence intensity (a.u.).
